The assay has as its system primary human hepatic stellate cells (donor 1). Nature of the assay: percent Bodipy-positive cells; higher = more lipid droplet accumulation. To be noted: 48 h.
The mark [1] stands for this setting: library stock concentration: 3.33 mM.
Where [2] appears, read: library stock concentration: 5.9 mM.
Where [3] appears, read: library stock concentration: 10 mM.
Where [4] appears, read: library stock concentration: 80 uM.
Where [5] appears, read: library stock concentration: 400 uM.
The mark [6] stands for this setting: library stock concentration: 2 mM.
[7] abbreviates: library stock concentration: 1 mM.

Where “and” joins values, the source holds several entries; their conditions need not be identical. Equal values may be shown once. Where a name gives a salt, the structure may show the parent alone. ± gives the standard deviation of the averaged measurements. The list shows a part of the results. Baselines shift from plate to plate; read single values as rough.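 Assay uses culture-activated primary human stellate myofibroblasts; lipid droplet recovery indicates inactivation. Measured: proportion of Hoechst-counted cells over a plate-specific Bodipy cutoff, duplicate wells, DMSO and nortriptyline as per-plate negative and positive controls. A hit scores, control-normalized, above the plate's top-tenth-percentile nortriptyline wells or ranks among its three best wells. Final well concentrations not reported.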

In the case of `CC(=O)NC[C@H]1CN(c2ccc(N3CCOCC3)c(F)c2)C(=O)O1` [Linezolid], the “percent Bodipy-positive cells” value reads like this: under setting [1], 7.94 ± 1.8%; under setting [2], 6.55 ± 2.3%; under setting [3], 16.6% and 32.8%.

For `CC(=O)NC[C@H]1CN(c2ccc(N3CCOCC3)c(F)c2)C(=O)O1`, the “percent Bodipy-positive cells” value under setting [3] was 6.38 ± 1.7%.

As for `O=c1c2ccccc2[nH]c(=S)n1CCN1CCC(=C(c2ccc(F)cc2)c2ccc(F)cc2)CC1` [Diacylglycerol Kinase Inhibitor II], the “percent Bodipy-positive cells” value is 5.01 ± 1.7% under setting [1] and 25.9 ± 7.5% under setting [3].

Take `O=c1c2ccccc2[nH]c(=S)n1CCN1CCC(=C(c2ccc(F)cc2)c2ccc(F)cc2)CC1`: the “percent Bodipy-positive cells” value is, setting by setting: under setting [4], 14.3 ± 7.6%; under setting [5], 15.8 ± 6.4%; under setting [6], 9.54 ± 1.7%; under setting [3], 8.1 ± 0.24%. On to `CC(=O)/N=c1/sc(S(N)(=O)=O)nn1C` [Methazolamide], for which the “percent Bodipy-positive cells” value was found to be 7.09 ± 3.1%. Also, the “percent Bodipy-positive cells” value under setting [1] worked out at 8.66 ± 1.1%. Also, under setting [3], the “percent Bodipy-positive cells” value is 35.3% and 32.6% and 28.5%. On to `CC1=CC(=O)c2ccccc2C1=O` [Menadione], for which the “percent Bodipy-positive cells” value was 8.04 ± 4.1% under setting [1] and 100% (library stock concentration: 11.6 mM).

On to `CCCCC[C@](C)(O)/C=C/[C@@H]1[C@@H](C/C=C\CCCC(=O)O)[C@@H](O)C[C@H]1O` [15(S)-15-methyl Prostaglandin F2.alpha.], for which, under setting [7], the “percent Bodipy-positive cells” value was determined as 17.7 ± 0.61%.

`Cc1ccc(C(=O)N(CCCN)[C@@H](c2nc3cc(Cl)ccc3c(=O)n2Cc2ccccc2)C(C)C)cc1`: the “percent Bodipy-positive cells” value is 49.5 ± 20% under setting [1] and 100% under setting [3]. `N=C(N)N1CCc2ccccc2C1` [Debrisoquin sulfate]: the “percent Bodipy-positive cells” value was 60.6 ± 45%. Moreover, the “percent Bodipy-positive cells” value (library stock concentration: 7.3 mM) was 2.46 ± 3.5%. Further, the “percent Bodipy-positive cells” value under setting [3] worked out at 30.6 ± 1.1%.

As for `COCCCOc1cc(C[C@@H](C[C@H](N)[C@@H](O)C[C@H](C(=O)NCC(C)(C)C(N)=O)C(C)C)C(C)C)ccc1OC`, the “percent Bodipy-positive cells” value under setting [3] was 43.2 ± 18%. As for `COCCCOc1cc(C[C@@H](C[C@H](N)[C@@H](O)C[C@H](C(=O)NCC(C)(C)C(N)=O)C(C)C)C(C)C)ccc1OC` [Aliskiren Hemifumarate], the “percent Bodipy-positive cells” value runs as follows: under setting [1], 6.93 ± 0.21%; under setting [3], 10.9 ± 0.75%. For the molecule `CNCCCCOc1ccccc1Cc1ccccc1` [Bifemelane], the “percent Bodipy-positive cells” value under setting [3] came out at 79.3 ± 11%. For `NC(=O)Nc1cc(-c2ccccc2)sc1C(N)=O` [IKK-2 Inhibitor XI], under setting [1], the “percent Bodipy-positive cells” value amounted to 11 ± 2.6%.

With `OCCC#Cc1nc(-c2ccc(F)cc2)c(-c2ccncc2)n1CCCc1ccccc1`, the “percent Bodipy-positive cells” value runs as follows: under setting [5], 27.6 ± 8.5%; under setting [6], 25.1 ± 6.7%; under setting [3], 66.06 ± 0.37%. As for `C#C[C@]1(OC(C)=O)CC[C@H]2[C@@H]3CCC4=CC(=O)CC[C@@H]4[C@H]3CC[C@@]21C` [Norethindrone acetate], the “percent Bodipy-positive cells” value reads like this: under setting [2], 7.33 ± 4.5%; under setting [3], 10.7 ± 0.3%. Turning to `C#C[C@]1(OC(C)=O)CC[C@H]2[C@@H]3CCC4=CC(=O)CC[C@@H]4[C@H]3CC[C@@]21C`, the “percent Bodipy-positive cells” value under setting [3] turned out to be 62.4 ± 8.6%. On to `CCCCOC(=O)c1ccc(O)cc1` [Butylparaben], for which the “percent Bodipy-positive cells” value was 19.5 ± 2.7%. `CCCc1nc2c(C)cc(-c3nc4ccccc4n3C)cc2n1Cc1ccc(-c2ccccc2C(=O)O)cc1` [Telmisartan]: the “percent Bodipy-positive cells” value runs as follows: under setting [1], 10.7 ± 8.8%; under setting [3], 11.6% and 24.5%.

As to `CCCc1nc2c(C)cc(-c3nc4ccccc4n3C)cc2n1Cc1ccc(-c2ccccc2C(=O)O)cc1`, the “percent Bodipy-positive cells” value under setting [3] was determined as 9.52 ± 2.9%. Turning to `O=C(O)Cc1ccc(O)c(O)c1` [3,4-Dihydroxyphenylacetic acid], the “percent Bodipy-positive cells” value under setting [3] was determined as 46.3 ± 20%. `CN(C)c1cc(NC(=O)CNC(C)(C)C)c(O)c2c1CC1CC3C(N(C)C)C(=O)C(C(N)=O)=C(O)C3(O)C(=O)C1=C2O` (stereo not drawn) [Tigecycline]: the “percent Bodipy-positive cells” value is, setting by setting: under setting [1], 6.55 ± 2.4%; under setting [3], 17.4 ± 9.2%. For `CCCCC1C(=O)N(c2ccccc2)N(c2ccccc2)C1=O` [Phenylbutazone], the “percent Bodipy-positive cells” value is, setting by setting: under setting [7], 11.4 ± 3%; under setting [1], 11.2 ± 4.2%; under setting [3], 19.4% and 12.5% and 18.1%. As to `Nc1ncnc2c1nc(Br)n2[C@@H]1O[C@@H]2COP(=O)(O)O[C@H]2[C@H]1O` [8-Bromo-cAMP], the “percent Bodipy-positive cells” value (library stock concentration: 12.3 mM) stood at 26.8 ± 5.3%. On to `Nc1ncnc2c1nc(Br)n2[C@@H]1O[C@@H]2COP(=O)(O)O[C@H]2[C@H]1O` [8-Bromo-cAMP, sodium salt], for which the “percent Bodipy-positive cells” value under setting [3] was 9.6 ± 4.2%. With `O=C(Nc1ccc2[nH]nc(-c3ccncc3)c2c1)[C@@H]1CCN(CC(=O)N2CCN(c3ccc(-c4ncccn4)cc3)CC2)C1`, the “percent Bodipy-positive cells” value under setting [4] came to 9.61 ± 1.6%, the “percent Bodipy-positive cells” value under setting [5] was found to be 10.8 ± 2.1% and the “percent Bodipy-positive cells” value under setting [6] worked out at 13.3 ± 2.9%. For `CCCCCCCCCCCCCCCCCC(=O)NCCS(=O)(=O)O` [N-Stearoyl Taurine], the “percent Bodipy-positive cells” value under setting [7] came to 9.75 ± 0.51%. `CCCCC[C@@H](O)[C@H]1C(=O)O[C@H](C)[C@@H](O)/C=C/C=C/C=C/C=C/C=C(\C)[C@@H](O)C[C@H](O)C[C@H](O)C[C@H](O)C[C@H](O)C[C@H](O)C[C@@H]1O` [Filipin]: the “percent Bodipy-positive cells” value (library stock concentration: 3.1 mM) was found to be 4.55 ± 0.67%. Turning to `CCCCC[C@@H](O)[C@H]1C(=O)O[C@H](C)[C@@H](O)/C=C/C=C/C=C/C=C/C=C(\C)[C@@H](O)C[C@H](O)C[C@H](O)C[C@H](O)C[C@H](O)C[C@H](O)C[C@@H]1O` [Filipin III], under setting [7], the “percent Bodipy-positive cells” value was 7.205 ± 0.039%. Consider `N=C(N)SCCN` [2-(2-Aminoethyl)isothiourea dihydrobromide], for which, under setting [3], the “percent Bodipy-positive cells” value amounted to 42.2 ± 1.6%. As for `N=C(N)SCCN` [S-(2-aminoethyl) Isothiourea (dihydrobromide)], the “percent Bodipy-positive cells” value under setting [7] is 15.8 ± 1.4%. Consider `CN(C)Cc1c(C(=O)NCCOc2ccc(C(=O)NO)cc2)oc2ccccc12`, for which the “percent Bodipy-positive cells” value came out at 74.3 ± 1.9% under setting [1] and 77.1 ± 2.9% under setting [3]. Turning to `Nc1nccc(-c2ccc3noc(-c4ccc(Cl)cc4)c3c2)n1` [PIM 1 Inhibitor 2], the “percent Bodipy-positive cells” value under setting [3] turned out to be 13.3 ± 3.2%. As for `COc1cc2ncnc(Nc3ccc(F)c(Cl)c3)c2cc1NC(=O)/C=C/CN1CCCCC1`, the “percent Bodipy-positive cells” value is, setting by setting: under setting [4], 12.5 ± 1.9%; under setting [5], 31.6 ± 6.2%; under setting [3], 95 ± 7.1%.

For the origin of these results see the supplement of paper PMC9135407.
